Source: PMC12367838, “Relevance of kinetic interactions and co-formulants for plant protection product liver toxicity in vitro” (Archives of Toxicology, 2025)
Certain results were filed several times, with different values. They are shown here; other results are not. An entry can have further records. Results that share an entry differ, and nothing given here explains why; they may come from other doses, times, organisms or constructs than stated.

Test system: HepaRG cells
Assay: Total RNA sequencing, differential gene expression
Conditions: low sub-cytotoxic concentration, 24 h, vs solvent control

C#CCOc1ccc(CCNC(=O)C(OCC#C)c2ccc(Cl)cc2)cc1OC (stereo not shown) [MDP, mandipropamid]
CYP3A4 Fold change: ≈ twofold and 2.0688
